{"source": "patent US8921420B2", "about": "“Method for preparing dicaffeoylquinic acids and use thereof in combating aphids” (Institut National de la Recherche Agronomique, priority 2008, dated 2014)", "test_system": "Myzus persicae", "experiment": "Selection test between two media (phagostimulation index, repulsivity)", "assay_type": "in vivo", "details": "FIG. 12; tested against Ap3 medium; lowest concentration tested 0.25 mM", "source_text": "The method used is the one developed by Yvan Rahbé (Rahbé & Febvay (1993) Entomologia Experimentalis et Applicata 67: 149-160; Chen (1996) Thesis, Institut National des Sciences Appliquées, Lyon, France: 158 pp.) in the context of research on the chemical determinants of plant resistance to various aphid species (Aphis gossypii, Acyrthosiphon pisum), and adapted to the green peach aphid, Myzus persicae.\nThe goal is to evaluate the attractive or repulsive character of a candidate molecule, at various concentrations, either in relation to a control base medium or in relation to another substance. […]\nThe medium (35 μl) is poured between two Parafilm® membranes stretched onto an Eppendorf® cone. […] The following morning, the number of aphids fixed on each medium is recorded. […] A phagostimulation index, representing the degree of desire for the aphid in the test medium, is calculated as follows: Phagostimulation index=(Test no.−Control no.)/Total no., wherein: […]\nThe tested phenolic substances other than 3,5-diCQ are of commercial origin apart from the caffeic acid methyl ester, which was synthesized. […] The amount and stability of the dissolved molecules are monitored by HPLC after the molecules are dissolved in the Ap3 medium, at the beginning and at the end of the experiment.", "note": "Some of these results come from one statement about several compounds together.", "data": [{"compound": "COC(=O)/C=C/c1ccc(O)c(O)c1", "note": "[caffeic acid methyl ester, reference compound]", "values": [{"measurement": "concentration at which the repulsive effect (negative phagostimulation index) is significant", "value": "≤ 0.25", "unit": "mM"}]}]}
